In patent US20150045248A1:
No constants are given. Whether binding was seen depends on the method and setting. In cells and extracts the contact can be indirect. Some binding calls cover weakened binding; strength is not graded here.

The chains behind the UniProt entries cited, without tags or fusion partners. Where a name states a change or a piece, a line headed by the entry shows the natural chain unless it says otherwise. Residues count along the entry.
UniProt P00367, residues 54-558: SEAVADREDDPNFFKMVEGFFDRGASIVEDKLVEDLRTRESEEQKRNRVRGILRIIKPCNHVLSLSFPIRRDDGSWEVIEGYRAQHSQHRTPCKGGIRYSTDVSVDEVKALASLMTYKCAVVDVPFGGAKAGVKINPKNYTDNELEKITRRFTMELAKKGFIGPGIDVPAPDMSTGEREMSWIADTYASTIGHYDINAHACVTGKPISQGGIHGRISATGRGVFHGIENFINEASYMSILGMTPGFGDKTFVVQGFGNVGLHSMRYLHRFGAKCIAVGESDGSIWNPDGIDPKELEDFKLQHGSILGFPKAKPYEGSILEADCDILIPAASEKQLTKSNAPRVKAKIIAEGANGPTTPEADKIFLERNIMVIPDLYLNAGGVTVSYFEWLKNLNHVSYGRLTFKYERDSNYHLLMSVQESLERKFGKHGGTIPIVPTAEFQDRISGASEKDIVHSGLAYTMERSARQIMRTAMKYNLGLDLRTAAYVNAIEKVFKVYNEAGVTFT
UniProt Q96DH6: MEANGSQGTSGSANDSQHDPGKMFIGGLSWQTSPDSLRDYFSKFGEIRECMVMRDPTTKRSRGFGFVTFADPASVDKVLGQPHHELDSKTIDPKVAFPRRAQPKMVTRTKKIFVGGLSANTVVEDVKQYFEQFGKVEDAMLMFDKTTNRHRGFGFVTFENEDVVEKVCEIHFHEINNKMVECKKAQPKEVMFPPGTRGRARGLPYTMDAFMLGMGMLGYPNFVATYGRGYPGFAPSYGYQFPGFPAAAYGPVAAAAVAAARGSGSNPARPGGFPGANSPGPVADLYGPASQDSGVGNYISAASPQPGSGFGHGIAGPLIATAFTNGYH
UniProt Q13148: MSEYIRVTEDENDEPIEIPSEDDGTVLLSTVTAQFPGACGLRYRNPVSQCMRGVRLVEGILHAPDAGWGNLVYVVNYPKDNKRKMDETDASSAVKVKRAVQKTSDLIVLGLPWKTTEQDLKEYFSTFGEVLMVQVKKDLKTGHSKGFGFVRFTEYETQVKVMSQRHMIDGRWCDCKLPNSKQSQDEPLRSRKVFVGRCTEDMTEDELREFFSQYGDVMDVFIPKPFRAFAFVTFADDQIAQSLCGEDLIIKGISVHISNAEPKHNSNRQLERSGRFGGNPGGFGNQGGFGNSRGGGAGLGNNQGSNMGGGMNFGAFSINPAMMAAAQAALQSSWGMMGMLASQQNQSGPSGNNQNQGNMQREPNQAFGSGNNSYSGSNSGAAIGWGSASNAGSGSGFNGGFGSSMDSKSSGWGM

Key:
[1] = target: T1, Aralar 1 (SLC25A12) (UniProt O75746); experiment: two-step tag pull-down of DAP-TDP-43, SDS-PAGE, in-gel digestion, LC-MS/MS
T1 sequence (looked up): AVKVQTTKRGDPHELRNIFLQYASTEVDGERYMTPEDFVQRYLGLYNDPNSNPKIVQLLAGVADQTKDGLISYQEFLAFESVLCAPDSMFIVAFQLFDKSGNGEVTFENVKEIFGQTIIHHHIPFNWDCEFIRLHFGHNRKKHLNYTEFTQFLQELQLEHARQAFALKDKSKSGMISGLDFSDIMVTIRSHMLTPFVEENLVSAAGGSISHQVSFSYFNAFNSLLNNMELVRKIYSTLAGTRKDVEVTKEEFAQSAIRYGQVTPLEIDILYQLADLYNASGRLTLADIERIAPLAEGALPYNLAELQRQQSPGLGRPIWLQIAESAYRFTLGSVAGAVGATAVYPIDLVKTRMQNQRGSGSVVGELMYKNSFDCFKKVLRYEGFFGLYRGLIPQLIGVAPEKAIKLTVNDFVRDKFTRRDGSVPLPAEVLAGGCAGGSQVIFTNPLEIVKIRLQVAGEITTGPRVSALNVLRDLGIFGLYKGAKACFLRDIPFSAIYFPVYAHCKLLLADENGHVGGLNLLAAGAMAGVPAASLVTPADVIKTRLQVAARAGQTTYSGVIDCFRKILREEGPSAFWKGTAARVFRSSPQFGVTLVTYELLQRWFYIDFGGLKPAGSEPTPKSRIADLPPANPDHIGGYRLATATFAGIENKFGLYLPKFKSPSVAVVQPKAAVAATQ

[2] = target: glutamate dehydrogenase (GDH) (UniProt P00367); experiment: as above
[3] = target: Musashi 2 (UniProt Q96DH6); experiment: as above
[4] = target: T2, Aralar 2 (SLC25A3; citrin) (UniProt Q9UJS0); experiment: as above
T2 sequence (looked up): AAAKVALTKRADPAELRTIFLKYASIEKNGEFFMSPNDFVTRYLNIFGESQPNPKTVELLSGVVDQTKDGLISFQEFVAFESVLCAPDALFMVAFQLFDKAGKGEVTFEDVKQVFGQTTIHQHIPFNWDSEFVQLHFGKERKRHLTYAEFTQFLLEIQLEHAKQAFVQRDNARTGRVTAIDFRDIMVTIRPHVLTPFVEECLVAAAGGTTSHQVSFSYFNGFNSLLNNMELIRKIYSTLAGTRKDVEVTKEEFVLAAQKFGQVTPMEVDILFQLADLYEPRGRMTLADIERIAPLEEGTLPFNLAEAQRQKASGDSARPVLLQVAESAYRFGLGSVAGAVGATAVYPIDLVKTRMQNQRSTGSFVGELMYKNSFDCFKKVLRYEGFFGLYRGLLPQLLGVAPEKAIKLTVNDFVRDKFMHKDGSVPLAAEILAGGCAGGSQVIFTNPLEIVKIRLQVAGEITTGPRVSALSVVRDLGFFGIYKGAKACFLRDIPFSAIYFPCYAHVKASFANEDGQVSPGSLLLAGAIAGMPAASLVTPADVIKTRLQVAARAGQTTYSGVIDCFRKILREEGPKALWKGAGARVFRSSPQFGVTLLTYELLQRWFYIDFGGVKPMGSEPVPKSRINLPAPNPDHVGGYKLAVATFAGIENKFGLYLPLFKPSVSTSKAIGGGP

[5] = target: T1, Aralar 1 (SLC25A12); experiment: co-immunoprecipitation with DAP-TDP-43 at 4, 8 and 24 h after doxycycline induction, Western blot (FIG. 12)
[6] = target: glutamate dehydrogenase (GDH) (UniProt P00367); experiment: as above
[7] = target: Musashi 2 (UniProt Q96DH6); experiment: as above
[8] = target: T2, Aralar 2 (SLC25A3; citrin); experiment: as above
[9] = target: T1, Aralar 1 (SLC25A12); experiment: co-immunoprecipitation from cell extract, Western blot (FIG. 15)
[10] = target: T2, Aralar 2 (SLC25A3; citrin); experiment: as above

Measured: binding

DAP-tagged TDP-43 (wild type TAR DNA-binding protein 43) (from UniProt Q13148 1-414)
not listed: [9] | [10]
binds: all other assays above

DAP-tagged RRM1 domain-deficient TDP-43 (from UniProt Q13148 1-414)
binds: [9] | [10]

DAP-tagged RRM2 domain-deficient TDP-43 (from UniProt Q13148 1-414)
binds: [9] | [10]
